# Hit rate of the full screen: of about 300,000 compounds, about 3,700 (1.2%) were called active. Inconclusive means that the source gave no clear call. Such entries were picked first, then a sample of the others. Calls come from the whole dose curve; tested in HEK293 cells. Potencies beside an inconclusive call are fits to weak or partial responses and may not hold up.
# Assay: qHTS for Inhibitors of binding or entry into cells for Lassa Virus; note: nearly all actives have a fitted effect of over 50% in size
# Conditions: Lassa virus pseudotype entry inhibition, cell reporter; series mostly up to 37.9 µM
# Potency is the fitted concentration of half-maximal effect.
row,SMILES,Potency
1,Fc1ccccc1OCCSc1nnnn1-c1ccccc1,"inconclusive: 16.4 µM [inhibitor, partial curve]"
2,CC1=C(C(=O)NCc2cccc(F)c2)C2(CCCCCC2)OC1=O,inactive
3,COc1ccc(-c2cc(C)no2)cc1S(=O)(=O)NCc1cccc(C)c1,"inconclusive: 1.78 µM [inhibitor, full curve, poor fit]"
4,Cc1ccc(-n2ncc(C(=O)Nc3ccc4c(c3)OCCO4)c2C2CCN(C(=O)OC(C)(C)C)CC2)cc1C,"inconclusive: 7.08 µM [activator, partial curve, poor fit]"
5,O=C1CC(c2ccc(OCCCCCOc3ccc(C4CC(=O)NC4=O)cc3)cc2)C(=O)N1 (centres undefined),"inconclusive: 31.6 µM [inhibitor, single point]"
6,Cc1ccc(CCNC(=O)c2nnn(-c3cc(C)cc(C)c3)c2N)cc1,inactive
7,Clc1ccc2c(SCC3CO3)c3ccccc3nc2c1 (centres undefined),active: 20 µM
8,O=[N+]([O-])c1ccc(Nc2ccc3ccccc3c2)nc1,inactive
9,CCCCNC(=S)N(C)/N=C/c1ccc(OCc2ccc(C(=O)OC)cc2)c(OC)c1,"inconclusive: 2.82 µM [inhibitor, partial curve, poor fit]"
10,Cn1c(-c2cccc(Br)c2)cnc1NCc1ccccc1O,inactive
11,COc1cc(CN2CCN(Cc3cccc(OC)c3OC)CC2)cc(OC)c1,"inconclusive: 20 µM [inhibitor, single point]"
12,Cc1c(N2C(=O)/C(=C3/C(=O)N(C)c4ccccc43)SC2=S)c(=O)n(-c2ccccc2)n1C,"inconclusive: 5.8 µM [inhibitor, single point]"
13,NC(=O)CCn1c2ccccc2c2ccccc21,inactive
14,Cc1ccccc1NC(=O)/C=C/c1ccc([N+](=O)[O-])s1,"inconclusive: 12.6 µM [inhibitor, partial curve, poor fit]"
15,CCOc1ccc(C(=O)Nc2ccc3c(c2)CCCN3S(=O)(=O)c2ccc(C)cc2)cc1,"inconclusive: 15.8 µM [inhibitor, single point]"
16,CC1=C(C(=O)OCc2ccc(C)cc2)C(c2ccccc2C(F)(F)F)CC(=O)N1 (centres undefined),"inconclusive: 6.31 µM [activator, single point]"
17,COC(=O)c1cc(NC(=O)CSC2=NCCS2)cc(C(=O)OC)c1,"inconclusive: 0.891 µM [inhibitor, single point]"
18,CCOC(=O)C1=C(N)n2c(s/c(=C\c3cccnc3)c2=O)=C(C(=O)OC)C1c1cccnc1 (centres undefined),"inconclusive: 28.2 µM [activator, single point]"
19,Cc1ccc2oc(-c3ccccc3)nc2c1,inactive
20,Cc1cnc(C(=O)NCC(=O)Nc2ccccc2Br)cn1,inactive
21,Cc1ccc(OCCSc2nc3ccccc3n2CC(=O)N2CCOCC2)cc1,"inconclusive: 35.5 µM [inhibitor, single point]"
22,COc1ccc(Nc2ncnc3c2cnn3Cc2ccccc2)cc1,"inconclusive: 16.4 µM [inhibitor, single point]"
23,CCOC(=O)Cc1csc(NC(=O)c2c(-c3ccccc3)noc2C)n1,inactive

row,SMILES,Potency
1,O=C(CN1C(=O)NC(Cc2ccccc2)C1=O)Nc1ccc(OC(F)F)cc1 (centres undefined),inactive
2,COc1ccc(CNC(=O)CN(Cc2ccc(F)cc2)C(=O)c2csnn2)cc1,"inconclusive: 14.1 µM [inhibitor, partial curve, poor fit]"
3,CCN1C(=O)c2c(C)nc3ccccc3c2C1=O,inactive
4,CN(C)CCSc1nc(-c2ccccc2)nc2c1COC(C)(C)C2,"inconclusive: 29.1 µM [inhibitor, single point]"
5,O=C(c1ccco1)N1CCN(C(=S)Nc2ccccc2Cl)CC1,inactive
6,C=CCC(CC=C)(NC(=O)c1cccc(C)c1)c1ccccc1,"inconclusive: 0.1 µM [activator, full curve, poor fit]"
7,CC(=O)c1cc(C)ccc1OC(=O)c1cccnc1,inactive
8,O=C(CNC1CCCCCC1)Nc1ccccc1N1CCCCC1,"inconclusive: 25.9 µM [inhibitor, single point]"
9,Cc1cccc(OCCn2cc(/C=N/NC(=O)c3ccncc3)c3ccccc32)c1,"inconclusive: 10 µM [inhibitor, partial curve]"
10,Cc1ccc(C(C)C)c(OCC(=O)Nc2cc(-c3nc4ccccc4[nH]3)ccc2C)c1,"inconclusive: 11.2 µM [inhibitor, single point]"
11,Cc1cccc(-n2cnc3cc(C(=O)NCc4ccccc4Cl)ccc32)c1,"inconclusive: 12.6 µM [inhibitor, single point]"
12,CNS(=O)(=O)c1cccc(C(=O)OCc2csc(-c3ccccc3)n2)c1,"inconclusive: 29.1 µM [inhibitor, partial curve, poor fit]"
13,O=C(CNC(=O)c1cccs1)Nc1ccc2c(c1)OCCO2,"inconclusive: 35.5 µM [inhibitor, single point]"
14,COc1ccc(C2c3c(ncn(Cc4ccco4)c3=N)Oc3ccc4ccccc4c32)cc1 (centres undefined),"inconclusive: 12.6 µM [inhibitor, partial curve]"
15,C#CC(C)(CC)NC(=O)c1cc2nc(C3CC3)cc(C(F)(F)F)n2n1 (centres undefined),"inconclusive: 15.8 µM [inhibitor, single point]"
16,Cc1ccc(O)c(NC(=O)CCS(=O)(=O)c2nc(-c3cccs3)cc(C(F)(F)F)n2)c1,"inconclusive: 3.55 µM [inhibitor, partial curve, poor fit]"
17,Brc1ccc(-c2noc(-c3ccccn3)n2)o1,"inconclusive: 5.01 µM [inhibitor, full curve, poor fit]"
18,CCOc1ccc2[nH]c(=O)c(CN(Cc3ccccc3OC)C(=O)c3ccccc3)cc2c1,"inconclusive: 5.8 µM [inhibitor, full curve, poor fit]"
19,CC(Sc1nc2cc(Cl)ccc2s1)C(=O)Nc1cccc(S(=O)(=O)N2CCOCC2)c1 (centres undefined),"inconclusive: 20.6 µM [inhibitor, single point]"
20,O=C(Nc1ccc(Cl)cn1)C1C(c2ccccc2)C1(Cl)Cl (centres undefined),"inconclusive: 22.4 µM [inhibitor, single point]"
21,CCOc1ccccc1NC(=O)Cn1c(=O)n(Cc2ccc(OC)cc2)c(=O)c2oc3ccccc3c21,inactive
22,CCN(CC)c1ccc(C(=O)NN)cc1,inactive
23,O=c1c2cccnc2[nH]c(=S)n1CCCN1CCN(c2ccc(F)cc2)CC1,active: 5.8 µM

# Shown as tab-separated lines: entries from further up.
row	SMILES	Potency
13	O=C(CNC(=O)c1cccs1)Nc1ccc2c(c1)OCCO2	inconclusive: 35.5 µM [inhibitor, single point]
14	COc1ccc(C2c3c(ncn(Cc4ccco4)c3=N)Oc3ccc4ccccc4c32)cc1 (centres undefined)	inconclusive: 12.6 µM [inhibitor, partial curve]
15	C#CC(C)(CC)NC(=O)c1cc2nc(C3CC3)cc(C(F)(F)F)n2n1 (centres undefined)	inconclusive: 15.8 µM [inhibitor, single point]

# Additional compounds.

row,SMILES,Potency
1,N#Cc1nc(Cc2ccccc2)oc1N1CCN(c2ccccc2)CC1,"inconclusive: 23.1 µM [inhibitor, partial curve]"
2,COc1ccc(OC)c(CNC(=O)CCCn2c(=O)c3cccn3c3cccnc32)c1,inactive
3,Cc1oc(-c2ccccc2F)nc1Cn1c(SCc2cccc(C(F)(F)F)c2)nc2ccncc21,inactive
4,NS(=O)(=O)c1cccnc1Nc1cccc(C(F)(F)F)c1,"inconclusive: 12.6 µM [inhibitor, partial curve, poor fit]"
5,O=C(Nc1ccccc1F)c1cnc(N2CCCCC2)c2ccccc12,inactive
6,CN(CCOc1ccccc1)C(=O)c1cc(S(=O)(=O)N2CCCCC2)ccc1Cl,"inconclusive: 8.91 µM [inhibitor, partial curve, poor fit]"
7,Cc1cccc(OCCC(=O)Nc2ccc(C)c(S(=O)(=O)N3CCCCC3)c2)c1,"inconclusive: 35.5 µM [inhibitor, single point]"
8,CN(C)c1ccc(C(O)c2cc3ccccc3s2)cc1 (centres undefined),"inconclusive: 35.5 µM [inhibitor, partial curve, poor fit]"
9,COc1ccccc1N1CCN(CCCCCCOc2ccc(F)cc2)CC1,"inconclusive: 15.8 µM [inhibitor, single point]"
10,CCc1cccc(CC)c1NC(=O)CN1CC(C)SC1=NC1CCCCC1 (centres undefined),"inconclusive: 13 µM [inhibitor, partial curve]"
11,Cc1ccc(C)n1NC(=O)c1cccc(Cl)c1,"inconclusive: 35.5 µM [activator, partial curve, poor fit]"
12,CC(C)C1C(=O)N(Cc2cn(CCC3OCCCO3)nn2)CCS(=O)(=O)N1Cc1ccc(-c2ccc(Cl)c(Cl)c2)cc1 (centres undefined),inconclusive: 0.0006 µM [inhibitor]
13,Cc1nc(NC(=O)c2ccc(-c3cc4ccccc4oc3=O)cc2)ccc1Br,inactive
14,CCCSC1=C(C#N)C(c2cccs2)CC(=O)N1 (centres undefined),"inconclusive: 35.5 µM [inhibitor, partial curve, poor fit]"
15,COc1ccc2c(c1)/C(=C/c1cnc[nH]1)C(=O)N2,"inconclusive: 18.3 µM [inhibitor, partial curve, poor fit]"
16,Cc1[nH]nc(-c2ccc(O)cc2O)c1-c1ccc(Cl)cc1,inactive
17,COc1ccccc1-c1cn[nH]c1-c1ccc(OCc2ccccc2F)cc1O,"inconclusive: 29.1 µM [inhibitor, single point]"
18,O=C1C2C3C=CC(c4ccccc4)(C2C(=O)N1c1cccc(Cl)c1)C1C(=O)N(c2cccc(Cl)c2)C(=O)C31 (centres undefined),"inconclusive: 7.94 µM [inhibitor, partial curve]"
19,O=C(C1CCN(S(=O)(=O)c2ccccc2)CC1)N1CCc2ccccc21,inactive
20,O=C(CSc1nc2ccccc2n1CCc1ccccc1)NC1CCS(=O)(=O)C1 (centres undefined),"inconclusive: 14.1 µM [activator, single point]"
21,O=C(COc1ccc(Cl)cc1)Nc1ccc2c(c1)C(=O)NC2=O,inactive
22,Nc1c(C(=O)Nc2cccc(F)c2)nnn1-c1ccc2c(c1)OCCO2,active: 3.98 µM
23,Nc1cccn2c(-c3ccc(Cl)c(Cl)c3)cnc12,"inconclusive: 3.98 µM [activator, partial curve, poor fit]"
